Results as given in PMC2914660.
No constants are given. Whether binding was seen depends on the method and setting. Binding seen in cells or lysates may run through a third protein. Some binding calls cover weakened binding; strength is not graded here.

The chains behind the UniProt entries cited, without tags or fusion partners. Where a name states a change or a piece, a line headed by the entry shows the natural chain unless it says otherwise. Residues count along the entry.
UniProt P08238: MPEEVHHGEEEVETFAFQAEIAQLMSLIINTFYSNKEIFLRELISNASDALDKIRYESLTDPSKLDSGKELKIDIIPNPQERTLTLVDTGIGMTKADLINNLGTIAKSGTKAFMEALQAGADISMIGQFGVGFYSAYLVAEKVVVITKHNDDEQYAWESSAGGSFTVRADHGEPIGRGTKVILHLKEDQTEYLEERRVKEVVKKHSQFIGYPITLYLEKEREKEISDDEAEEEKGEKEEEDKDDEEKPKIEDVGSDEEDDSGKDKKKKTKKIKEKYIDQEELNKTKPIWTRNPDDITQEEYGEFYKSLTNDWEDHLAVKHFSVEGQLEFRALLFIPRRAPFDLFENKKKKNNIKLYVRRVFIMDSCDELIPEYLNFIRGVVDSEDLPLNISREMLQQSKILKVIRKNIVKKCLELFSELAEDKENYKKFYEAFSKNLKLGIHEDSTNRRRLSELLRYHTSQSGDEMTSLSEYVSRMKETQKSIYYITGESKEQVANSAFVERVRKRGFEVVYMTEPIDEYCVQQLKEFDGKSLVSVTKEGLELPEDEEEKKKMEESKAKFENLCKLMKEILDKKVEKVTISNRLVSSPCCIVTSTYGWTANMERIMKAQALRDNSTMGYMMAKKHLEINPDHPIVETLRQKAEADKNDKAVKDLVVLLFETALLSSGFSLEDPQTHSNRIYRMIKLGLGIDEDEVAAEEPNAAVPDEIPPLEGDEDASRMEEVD
UniProt P14780: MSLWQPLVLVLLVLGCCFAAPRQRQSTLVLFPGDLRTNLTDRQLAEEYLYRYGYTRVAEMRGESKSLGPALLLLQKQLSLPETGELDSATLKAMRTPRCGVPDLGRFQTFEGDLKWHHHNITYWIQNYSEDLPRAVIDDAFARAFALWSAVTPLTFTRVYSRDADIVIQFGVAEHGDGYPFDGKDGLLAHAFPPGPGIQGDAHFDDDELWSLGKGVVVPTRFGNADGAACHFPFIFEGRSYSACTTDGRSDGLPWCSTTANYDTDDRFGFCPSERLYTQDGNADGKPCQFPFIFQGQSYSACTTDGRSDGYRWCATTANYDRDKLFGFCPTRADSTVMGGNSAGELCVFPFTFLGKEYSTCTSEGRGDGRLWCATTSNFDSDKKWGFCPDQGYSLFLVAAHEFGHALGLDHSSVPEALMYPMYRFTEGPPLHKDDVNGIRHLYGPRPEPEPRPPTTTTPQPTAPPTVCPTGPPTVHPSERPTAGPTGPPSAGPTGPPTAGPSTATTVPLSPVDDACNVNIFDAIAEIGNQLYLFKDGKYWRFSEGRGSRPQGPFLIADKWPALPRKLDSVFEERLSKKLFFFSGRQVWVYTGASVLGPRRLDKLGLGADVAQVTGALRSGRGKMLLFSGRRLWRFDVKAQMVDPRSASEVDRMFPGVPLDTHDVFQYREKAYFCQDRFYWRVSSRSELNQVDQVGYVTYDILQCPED
UniProt P08253, residues 30-660: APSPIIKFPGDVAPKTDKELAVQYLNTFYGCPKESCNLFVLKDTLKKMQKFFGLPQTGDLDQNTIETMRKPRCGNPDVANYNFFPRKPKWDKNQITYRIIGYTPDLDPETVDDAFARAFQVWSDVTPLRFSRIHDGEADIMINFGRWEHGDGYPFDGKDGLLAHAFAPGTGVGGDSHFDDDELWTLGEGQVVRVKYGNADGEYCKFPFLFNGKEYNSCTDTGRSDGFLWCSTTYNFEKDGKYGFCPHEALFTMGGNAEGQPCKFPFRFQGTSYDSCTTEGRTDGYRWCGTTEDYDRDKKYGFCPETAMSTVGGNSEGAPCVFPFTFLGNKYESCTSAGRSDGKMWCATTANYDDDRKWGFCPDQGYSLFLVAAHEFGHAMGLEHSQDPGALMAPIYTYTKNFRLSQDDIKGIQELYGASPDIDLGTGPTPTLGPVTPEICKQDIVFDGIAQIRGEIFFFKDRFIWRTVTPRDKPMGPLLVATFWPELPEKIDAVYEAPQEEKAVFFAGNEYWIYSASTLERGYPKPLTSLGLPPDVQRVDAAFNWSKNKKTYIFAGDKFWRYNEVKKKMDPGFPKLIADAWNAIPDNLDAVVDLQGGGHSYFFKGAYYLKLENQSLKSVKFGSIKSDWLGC

Legend:
[1] = biological target: heat shock protein 90 α isoform (HSP90α), secreted (human (endogenous in MDAMB453)) (UniProt P07900); assay: co-IP; reverse: 100-fold concentrated culture supernatant of MDAMB453 cells immunoprecipitated with anti-HSP90α or anti-HSP90β overnight at 4°C, protein G-Sepharose; Western blot with anti-MMP2 or anti-MMP9
[2] = biological target: heat shock protein 90 β isoform (HSP90β), secreted (human (endogenous in MDAMB453)) (UniProt P08238); assay: as above
[3] = biological target: pro-MMP9 (inactive pro-enzyme of matrix metalloproteinase 9) (human (endogenous in MDAMB453)) (UniProt P14780); assay: co-IP; 100-fold concentrated serum-free culture supernatant of MDAMB453 cells (control cultures); immunoprecipitated with anti-MMP2 or anti-MMP9 overnight at 4°C, protein G-Sepharose 2 h at room temperature, washed 3 times with lysis buffer; Western blot with anti-HSP90α or anti-HSP90β
[4] = biological target: pro-MMP9 (inactive pro-enzyme of matrix metalloproteinase 9) (human (endogenous in MDAMB453)) (UniProt P14780); assay: condition: only cultures treated with 200 μg/ml mAb 4C5; co-IP; concentrated supernatant of MDAMB453 cultures exposed to 200 μg/ml mAb 4C5 for 24 h; immunoprecipitated with anti-MMP2 or anti-MMP9, protein A-Sepharose; Western blot with anti-HSP90α or anti-HSP90β
[5] = biological target: pro-MMP2 (inactive pro-enzyme of matrix metalloproteinase 2) (human (endogenous in MDAMB453)) (UniProt P08253); assay: co-IP; 100-fold concentrated serum-free culture supernatant of MDAMB453 cells (control cultures); immunoprecipitated with anti-MMP2 or anti-MMP9 overnight at 4°C, protein G-Sepharose 2 h at room temperature, washed 3 times with lysis buffer; Western blot with anti-HSP90α or anti-HSP90β
[6] = biological target: pro-MMP2 (inactive pro-enzyme of matrix metalloproteinase 2) (human (endogenous in MDAMB453)) (UniProt P08253); assay: condition: only cultures treated with 200 μg/ml mAb 4C5; co-IP; concentrated supernatant of MDAMB453 cultures exposed to 200 μg/ml mAb 4C5 for 24 h; immunoprecipitated with anti-MMP2 or anti-MMP9, protein A-Sepharose; Western blot with anti-HSP90α or anti-HSP90β

Row | binding [1] | binding [2] | binding [3] | binding [4] | binding [5] | binding [6] | Substance
1 | binds | binds |  |  |  |  | activated (mature) form of MMP9 (from UniProt P14780 107-707) (enzyme)
2 |  |  | binds | no binding |  |  | heat shock protein 90 α isoform (HSP90α), secreted (from UniProt P07900 1-732)
3 |  |  | binds | no binding | binds | no binding | heat shock protein 90 β isoform (HSP90β), secreted (from UniProt P08238 1-724)
4 |  | binds |  |  |  |  | pro-MMP2 (inactive pro-enzyme of matrix metalloproteinase 2) (from UniProt P08253 30-660)
5 | binds | binds |  |  |  |  | pro-MMP9 (inactive pro-enzyme of matrix metalloproteinase 9) (from UniProt P14780 20-707)
